Source: patent US12370202B2, “Methods and compositions for inhibiting the NLRP3 inflammasome and/or LON protease” (TRITERPENOID THERAPEUTICS, INC., priority 2019, dated 2025)
At least one compound was matched to its structure with a doubt left.

Test system: U-87MG
Test: GBM cell growth (confluence), IncuCyte
Format: cell-based, human
Details: TMZ dose used in the combination
Description: FIG. 8 is a set of line graphs. CDDO-2P-Im suppresses growth of TMZ-resistant human GBM cells in vitro. […] Reduction in confluence is accompanied by the detachment and death of GBM cells. The data reveal that the relatively TMZ-resistant U-87MG is equivalent to LN227 in its sensitivity to CDDO-2P-Im.
To define the capacity of CDDO-2P-IM to suppress the growth and viability of GBM, several well-characterized human GBM cell lines (U251, U-87MG, LN227, Gli36Δ5), primary cultures of patient-derived GBM cells (UVM04, D028), and normal human astrocytes (provided by Dr. Arti Gaur, Dartmouth College) were utilized.
The activity of CDDO-2P-IM in cultures of human GBM was assessed and similar nanomolar (nM) potency was observed. […] These changes in confluence observed by Incucyte® corresponded with a reduction in cell viability. Doses of CDDO-2P-IM that result in complete cell death of the LN227, U251 and U-87MG cell lines had no effect on the viability of primary human astrocytes in vitro (not shown).

Cn1nnc2c(C(N)=O)ncn2c1=O [TMZ, 3,4-dihydro-3-methyl-4-oxoimidazo[5,1-d]-as-tetrazine-8-carboxamide, reference compound]
GBM cell kill, TMZ alone: absolutely no effect
